Results as given in patent US20180230399A1, “ORGANIC COMPOUNDS” (GIVAUDAN SA, priority 2014, published 2018).

Assay: Odor description
With CC(C)Cc1ccc(CCCC=O)cc1 [Example 2, 4-(4-(Isobutyl)phenyl)butanal] the Odor description was “fruity, aldehydic, floral, green, fatty, strong”. In the case of CC(C)(C)c1ccc(CCCC=O)cc1 [Example 1, 4-(4-(tert-Butyl)phenyl)butanal], the Odor description is reported as “fatty, waxy, floral, weak”. With Cc1cc(CC(C)C)ccc1CCCC=O [Example 3, 4-(4-Isobutyl-2-methylphenyl)butanal] the Odor description was “floral, green, lilial, silvial, strong”.
